The supplement of paper PMC10849652
The list shows a part of the results.

By UniProt entry, the sequences of proteins in these tests, tags left out. Where a name states a change or a piece, a line headed by the entry shows the natural chain unless it says otherwise.
UniProt Q9UL15: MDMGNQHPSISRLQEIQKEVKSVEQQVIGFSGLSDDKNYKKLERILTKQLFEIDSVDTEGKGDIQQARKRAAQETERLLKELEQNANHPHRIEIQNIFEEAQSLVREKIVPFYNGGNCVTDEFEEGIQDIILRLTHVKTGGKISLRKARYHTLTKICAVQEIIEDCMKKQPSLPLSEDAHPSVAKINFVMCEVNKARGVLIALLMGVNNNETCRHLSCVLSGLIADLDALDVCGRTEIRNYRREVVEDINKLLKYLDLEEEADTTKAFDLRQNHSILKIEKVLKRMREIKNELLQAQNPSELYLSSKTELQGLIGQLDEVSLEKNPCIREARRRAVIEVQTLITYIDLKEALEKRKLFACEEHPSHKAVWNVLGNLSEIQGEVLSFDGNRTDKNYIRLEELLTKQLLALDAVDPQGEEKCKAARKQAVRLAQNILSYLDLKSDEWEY
UniProt Q12983, whole entry, looked up: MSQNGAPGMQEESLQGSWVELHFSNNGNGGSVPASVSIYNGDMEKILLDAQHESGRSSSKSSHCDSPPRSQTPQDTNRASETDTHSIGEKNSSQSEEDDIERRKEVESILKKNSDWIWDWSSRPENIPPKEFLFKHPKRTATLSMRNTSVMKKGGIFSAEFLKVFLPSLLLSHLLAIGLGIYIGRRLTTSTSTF
UniProt Q8NFC6: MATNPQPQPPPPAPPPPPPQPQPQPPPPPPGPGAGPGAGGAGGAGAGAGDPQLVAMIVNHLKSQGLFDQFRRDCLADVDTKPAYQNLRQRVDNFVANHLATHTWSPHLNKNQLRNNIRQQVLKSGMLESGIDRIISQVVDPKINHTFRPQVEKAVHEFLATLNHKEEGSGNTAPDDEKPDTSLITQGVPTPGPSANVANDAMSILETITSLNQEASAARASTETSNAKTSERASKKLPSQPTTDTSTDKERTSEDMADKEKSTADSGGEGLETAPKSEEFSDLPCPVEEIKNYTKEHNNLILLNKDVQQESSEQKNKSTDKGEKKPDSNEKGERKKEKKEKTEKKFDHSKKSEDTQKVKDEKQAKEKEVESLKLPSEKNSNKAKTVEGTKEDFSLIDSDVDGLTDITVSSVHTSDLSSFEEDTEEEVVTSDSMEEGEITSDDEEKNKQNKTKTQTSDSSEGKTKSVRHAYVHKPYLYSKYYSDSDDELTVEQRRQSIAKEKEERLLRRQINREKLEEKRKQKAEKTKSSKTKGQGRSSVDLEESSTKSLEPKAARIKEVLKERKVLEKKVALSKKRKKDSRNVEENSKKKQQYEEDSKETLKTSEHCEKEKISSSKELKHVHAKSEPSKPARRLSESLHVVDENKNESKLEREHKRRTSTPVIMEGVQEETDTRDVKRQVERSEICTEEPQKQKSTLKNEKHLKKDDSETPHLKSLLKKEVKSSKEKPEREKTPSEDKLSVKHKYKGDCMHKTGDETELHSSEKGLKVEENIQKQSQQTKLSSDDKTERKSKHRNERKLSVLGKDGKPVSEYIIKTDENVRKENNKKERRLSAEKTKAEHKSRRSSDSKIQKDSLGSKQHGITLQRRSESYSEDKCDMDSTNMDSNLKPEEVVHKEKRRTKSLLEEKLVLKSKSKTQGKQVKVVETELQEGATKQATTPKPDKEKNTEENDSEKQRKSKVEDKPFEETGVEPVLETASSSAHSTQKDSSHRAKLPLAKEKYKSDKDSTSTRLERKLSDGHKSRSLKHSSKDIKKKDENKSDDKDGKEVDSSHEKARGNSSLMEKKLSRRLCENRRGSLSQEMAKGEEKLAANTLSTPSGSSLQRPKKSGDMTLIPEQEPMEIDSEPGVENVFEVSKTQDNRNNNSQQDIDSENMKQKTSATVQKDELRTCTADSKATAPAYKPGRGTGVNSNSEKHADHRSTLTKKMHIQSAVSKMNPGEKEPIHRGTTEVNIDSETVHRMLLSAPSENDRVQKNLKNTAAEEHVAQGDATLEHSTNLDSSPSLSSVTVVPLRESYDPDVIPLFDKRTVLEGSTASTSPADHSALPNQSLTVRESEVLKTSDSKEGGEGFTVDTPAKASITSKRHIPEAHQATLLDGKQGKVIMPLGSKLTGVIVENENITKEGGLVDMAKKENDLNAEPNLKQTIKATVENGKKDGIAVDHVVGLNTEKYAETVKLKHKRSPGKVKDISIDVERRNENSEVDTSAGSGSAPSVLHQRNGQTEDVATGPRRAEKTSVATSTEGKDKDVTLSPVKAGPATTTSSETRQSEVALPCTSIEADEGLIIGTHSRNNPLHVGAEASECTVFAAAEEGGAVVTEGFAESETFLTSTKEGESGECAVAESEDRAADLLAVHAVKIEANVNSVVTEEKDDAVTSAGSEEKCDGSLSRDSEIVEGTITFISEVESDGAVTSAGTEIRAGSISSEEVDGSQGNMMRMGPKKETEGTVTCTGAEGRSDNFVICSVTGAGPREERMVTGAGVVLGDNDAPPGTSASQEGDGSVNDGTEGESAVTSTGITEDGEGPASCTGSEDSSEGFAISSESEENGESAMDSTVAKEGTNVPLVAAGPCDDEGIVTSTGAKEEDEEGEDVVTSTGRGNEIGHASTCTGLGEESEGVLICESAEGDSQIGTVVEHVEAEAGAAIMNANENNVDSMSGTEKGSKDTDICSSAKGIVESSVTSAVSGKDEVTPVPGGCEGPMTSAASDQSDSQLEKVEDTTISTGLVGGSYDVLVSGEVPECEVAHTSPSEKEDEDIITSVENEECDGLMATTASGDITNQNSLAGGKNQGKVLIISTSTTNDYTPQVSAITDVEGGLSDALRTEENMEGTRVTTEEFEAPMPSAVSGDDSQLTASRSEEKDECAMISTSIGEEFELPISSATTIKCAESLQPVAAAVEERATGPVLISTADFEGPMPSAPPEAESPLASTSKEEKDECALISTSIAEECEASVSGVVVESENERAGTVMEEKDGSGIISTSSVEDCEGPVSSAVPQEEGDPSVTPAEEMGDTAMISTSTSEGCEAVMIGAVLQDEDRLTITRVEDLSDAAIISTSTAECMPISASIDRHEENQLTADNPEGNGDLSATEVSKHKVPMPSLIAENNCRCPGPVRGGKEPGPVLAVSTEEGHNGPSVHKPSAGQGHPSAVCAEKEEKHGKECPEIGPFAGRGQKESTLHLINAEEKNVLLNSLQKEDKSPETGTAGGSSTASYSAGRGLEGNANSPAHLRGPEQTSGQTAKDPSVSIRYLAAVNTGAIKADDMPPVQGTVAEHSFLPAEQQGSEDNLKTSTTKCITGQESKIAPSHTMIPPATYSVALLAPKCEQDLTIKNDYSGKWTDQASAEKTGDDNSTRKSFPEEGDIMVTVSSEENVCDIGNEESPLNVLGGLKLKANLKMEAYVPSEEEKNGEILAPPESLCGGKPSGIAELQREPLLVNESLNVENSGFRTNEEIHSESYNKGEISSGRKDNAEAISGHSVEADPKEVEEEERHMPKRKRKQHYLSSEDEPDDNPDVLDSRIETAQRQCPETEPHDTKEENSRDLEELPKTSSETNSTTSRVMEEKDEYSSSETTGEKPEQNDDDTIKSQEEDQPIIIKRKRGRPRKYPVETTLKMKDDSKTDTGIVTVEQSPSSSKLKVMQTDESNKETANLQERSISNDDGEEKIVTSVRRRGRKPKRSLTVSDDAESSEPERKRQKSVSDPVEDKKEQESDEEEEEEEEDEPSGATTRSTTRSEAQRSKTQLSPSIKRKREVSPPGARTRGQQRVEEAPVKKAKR
UniProt Q9UHQ4: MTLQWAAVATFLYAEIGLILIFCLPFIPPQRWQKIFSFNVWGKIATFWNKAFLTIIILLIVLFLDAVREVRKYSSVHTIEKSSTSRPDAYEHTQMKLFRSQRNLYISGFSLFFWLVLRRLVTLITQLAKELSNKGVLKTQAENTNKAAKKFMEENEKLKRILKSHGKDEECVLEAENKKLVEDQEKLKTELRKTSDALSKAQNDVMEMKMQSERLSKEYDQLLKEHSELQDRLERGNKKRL
UniProt Q9BX63: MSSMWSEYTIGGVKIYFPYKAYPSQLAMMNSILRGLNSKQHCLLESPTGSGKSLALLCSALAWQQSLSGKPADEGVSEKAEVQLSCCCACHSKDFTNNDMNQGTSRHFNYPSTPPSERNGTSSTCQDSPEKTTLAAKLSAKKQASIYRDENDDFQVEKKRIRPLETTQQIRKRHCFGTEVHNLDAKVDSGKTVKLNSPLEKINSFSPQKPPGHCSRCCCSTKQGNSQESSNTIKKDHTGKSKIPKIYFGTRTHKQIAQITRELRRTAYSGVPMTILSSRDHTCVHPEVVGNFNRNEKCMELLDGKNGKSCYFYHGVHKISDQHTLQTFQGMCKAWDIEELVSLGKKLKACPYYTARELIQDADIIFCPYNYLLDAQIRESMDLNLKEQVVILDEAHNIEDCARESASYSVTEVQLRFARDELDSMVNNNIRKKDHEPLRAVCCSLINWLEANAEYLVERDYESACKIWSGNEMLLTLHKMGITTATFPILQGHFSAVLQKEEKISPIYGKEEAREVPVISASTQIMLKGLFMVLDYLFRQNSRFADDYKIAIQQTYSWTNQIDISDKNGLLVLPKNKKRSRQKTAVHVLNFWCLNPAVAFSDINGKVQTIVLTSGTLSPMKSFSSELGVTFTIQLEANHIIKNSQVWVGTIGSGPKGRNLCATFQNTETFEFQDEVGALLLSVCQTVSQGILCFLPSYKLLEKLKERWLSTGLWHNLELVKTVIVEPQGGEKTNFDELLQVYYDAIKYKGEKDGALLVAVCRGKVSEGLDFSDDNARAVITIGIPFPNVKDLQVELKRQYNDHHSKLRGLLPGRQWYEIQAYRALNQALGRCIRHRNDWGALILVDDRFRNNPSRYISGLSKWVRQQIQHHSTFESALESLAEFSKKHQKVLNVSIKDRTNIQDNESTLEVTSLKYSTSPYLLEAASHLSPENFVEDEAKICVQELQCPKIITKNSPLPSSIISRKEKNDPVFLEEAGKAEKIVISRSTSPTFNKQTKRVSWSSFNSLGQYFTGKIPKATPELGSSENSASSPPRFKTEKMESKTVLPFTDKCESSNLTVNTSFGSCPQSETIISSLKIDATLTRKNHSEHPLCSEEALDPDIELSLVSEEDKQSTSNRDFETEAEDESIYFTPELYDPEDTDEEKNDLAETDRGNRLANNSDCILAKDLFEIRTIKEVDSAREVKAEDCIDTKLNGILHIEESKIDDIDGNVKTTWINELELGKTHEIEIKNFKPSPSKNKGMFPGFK
UniProt Q16611: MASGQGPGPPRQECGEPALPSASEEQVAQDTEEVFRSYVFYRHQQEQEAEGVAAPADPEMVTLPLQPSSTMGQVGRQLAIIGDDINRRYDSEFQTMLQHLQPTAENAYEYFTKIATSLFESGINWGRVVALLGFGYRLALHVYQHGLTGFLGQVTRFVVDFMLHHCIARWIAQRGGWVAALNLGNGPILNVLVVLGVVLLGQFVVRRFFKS
UniProt P15291: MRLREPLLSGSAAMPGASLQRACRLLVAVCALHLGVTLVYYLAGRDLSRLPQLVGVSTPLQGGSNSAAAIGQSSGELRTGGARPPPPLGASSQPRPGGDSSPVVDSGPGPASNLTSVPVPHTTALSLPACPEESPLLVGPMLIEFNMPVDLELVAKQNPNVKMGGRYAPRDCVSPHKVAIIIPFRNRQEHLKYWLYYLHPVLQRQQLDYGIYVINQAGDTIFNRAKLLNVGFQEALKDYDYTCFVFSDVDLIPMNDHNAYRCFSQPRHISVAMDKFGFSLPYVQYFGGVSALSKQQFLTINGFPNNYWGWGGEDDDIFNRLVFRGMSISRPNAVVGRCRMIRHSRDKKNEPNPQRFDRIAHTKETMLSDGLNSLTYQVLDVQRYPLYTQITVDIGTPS
UniProt Q92994: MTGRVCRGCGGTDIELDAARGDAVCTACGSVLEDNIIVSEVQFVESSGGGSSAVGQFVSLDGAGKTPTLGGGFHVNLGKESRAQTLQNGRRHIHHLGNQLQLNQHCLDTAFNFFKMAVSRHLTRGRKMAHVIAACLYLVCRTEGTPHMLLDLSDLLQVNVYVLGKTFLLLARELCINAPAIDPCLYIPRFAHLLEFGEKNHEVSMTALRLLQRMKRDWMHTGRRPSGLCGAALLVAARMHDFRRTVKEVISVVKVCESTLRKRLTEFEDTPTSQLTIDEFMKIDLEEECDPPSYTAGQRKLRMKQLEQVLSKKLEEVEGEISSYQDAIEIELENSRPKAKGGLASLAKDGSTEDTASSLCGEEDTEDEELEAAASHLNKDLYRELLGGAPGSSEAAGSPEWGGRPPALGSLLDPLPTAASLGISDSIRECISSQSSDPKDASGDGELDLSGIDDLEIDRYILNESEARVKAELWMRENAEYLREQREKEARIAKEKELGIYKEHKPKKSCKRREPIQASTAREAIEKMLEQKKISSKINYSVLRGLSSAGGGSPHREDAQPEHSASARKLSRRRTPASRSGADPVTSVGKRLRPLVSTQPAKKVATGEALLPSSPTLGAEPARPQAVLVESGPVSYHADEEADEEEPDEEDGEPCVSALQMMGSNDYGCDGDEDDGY

Legend:
Experiment in all cases: log2 fold change, soluble protein after heating vs DMSO (PISA); higher = thermal stabilisation; K562 lysate, 10 uM; active = over 0.2 and 3.5 SD of the protein, either way, in both replicates (recomputed)
lapatinib = compound: CS(=O)(=O)CCNCc1ccc(-c2ccc3ncnc(Nc4ccc(OCc5cccc(F)c5)c(Cl)c4)c3c2)o1 [lapatinib]
Summary of the method: (§1)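 To prepare the extract, K562 pellets were dounce-homogenised in PBS pH 7.4 with 1 mM MgCl2, giving crude material at 1 mg/mL protein. This was treated with 10 μM compound for 30 min, then heated in aliquots for 3 min over 48°C-58°C before pooling and addition of NP-40 to 0.5% at 4°C. Centrifugation at 21,000xg for 90 min left soluble protein in the supernatant, which TMTpro 16plex LC-MS/MS quantified with equalised channel sums. Results are log-two fold changes in thermal stability compared with solvent controls, from duplicates.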

pictilisib = compound: CS(=O)(=O)N1CCN(Cc2cc3nc(-c4cccc5[nH]ncc45)nc(N4CCOCC4)c3s2)CC1 [pictilisib]
Summary of the method: as §1

crizotinib = compound: C[C@@H](Oc1cc(-c2cnn(C3CCNCC3)c2)cnc1N)c1c(Cl)ccc(F)c1Cl [crizotinib]
Summary of the method: as §1

[1] = compound: C[C@H](C1=CC=C(C=C1)C(=O)NC2=C3C=CNC3=NC=C2)N
Summary of the method: as §1

duvelisib = compound: C[C@H](Nc1ncnc2nc[nH]c12)c1cc2cccc(Cl)c2c(=O)n1-c1ccccc1 [duvelisib]
Summary of the method: as §1

gandotinib = compound: Cc1cc(Nc2cc(CN3CCOCC3)c3nc(C)c(Cc4ccc(Cl)cc4F)n3n2)n[nH]1 [gandotinib]
Summary of the method: as §1

tozasertib = compound: Cc1cc(Nc2cc(N3CCN(C)CC3)nc(Sc3ccc(NC(=O)C4CC4)cc3)n2)n[nH]1 [tozasertib]
Summary of the method: as §1

doramapimod = compound: Cc1ccc(-n2nc(C(C)(C)C)cc2NC(=O)Nc2ccc(OCCN3CCOCC3)c3ccccc23)cc1 [doramapimod]
Summary of the method: as §1

bafetinib = compound: Cc1ccc(NC(=O)c2ccc(CN3CC[C@H](N(C)C)C3)c(C(F)(F)F)c2)cc1Nc1nccc(-c2cncnc2)n1 [bafetinib]
Summary of the method: as §1

[2] = compound: Cc1cccc(CC(=O)N2CCc3c2ccc(-c2cn(C)c4ncnc(N)c24)c3F)n1
Summary of the method: as §1

nilotinib = compound: Cc1cn(-c2cc(NC(=O)c3ccc(C)c(Nc4nccc(-c5cccnc5)n4)c3)cc(C(F)(F)F)c2)cn1 [nilotinib]
Summary of the method: as §1

[3] = compound: Cc1nc(Nc2n[nH]c3c2CN(C(=O)N[C@H](CN(C)C)c2ccccc2)C3(C)C)c2sccc2n1
Summary of the method: as §1

dasatinib = compound: Cc1nc(Nc2ncc(C(=O)Nc3c(C)cccc3Cl)s2)cc(N2CCN(CCO)CC2)n1 [dasatinib]
Summary of the method: as §1

[4] = compound: Cc1ncc(-c2ccnc(Nc3ccc(S(C)(=O)=O)cc3)n2)n1C(C)C
Summary of the method: as §1

[5] = compound: Cn1cc(-c2ccc3c(c2)CCN3C(=O)Cc2cccc(C(F)(F)F)c2)c2c(N)ncnc21
Summary of the method: as §1

quisinostat = compound: Cn1cc(CNCC2CCN(c3ncc(C(=O)NO)cn3)CC2)c2ccccc21 [quisinostat]
Summary of the method: as §1

tipifarnib = compound: Cn1cncc1[C@@](N)(c1ccc(Cl)cc1)c1ccc2c(c1)c(-c1cccc(Cl)c1)cc(=O)n2C [tipifarnib]
Summary of the method: as §1

[6] = compound: NC(=O)Nc1cc(-c2cccc(F)c2)sc1C(=O)N[C@H]1CCCNC1
Summary of the method: as §1

[7] = compound: NC(=O)c1cnc(N[C@@H]2CCCC[C@@H]2N)nc1Nc1cccc(-n2nccn2)c1
Summary of the method: as §1

[8] = compound: NC1(c2ccc(-c3nc4ccn5c(=O)[nH]nc5c4cc3-c3ccccc3)cc2)CCC1
Summary of the method: as §1

| Target | log2 fold change (lapatinib) | log2 fold change (pictilisib) | log2 fold change (crizotinib) | log2 fold change [1] | log2 fold change (duvelisib) | log2 fold change (gandotinib) | log2 fold change (tozasertib) | log2 fold change (doramapimod) | log2 fold change (bafetinib) | log2 fold change [2] | log2 fold change (nilotinib) | log2 fold change [3] | log2 fold change (dasatinib) | log2 fold change [4] | log2 fold change [5] | log2 fold change (quisinostat) | log2 fold change (tipifarnib) | log2 fold change [6] | log2 fold change [7] | log2 fold change [8] |
| --- | --- | --- | --- | --- | --- | --- | --- | --- | --- | --- | --- | --- | --- | --- | --- | --- | --- | --- | --- | --- |
| BAG5 isoform 2 (UniProt Q9UL15) | inactive: 0.008 | inactive: -0.012 | inactive: -0.044 | inactive: -0.036 | inactive: 0.019 | inactive: 0.026 | inactive: 0.017 | inactive: 0.019 | inactive: -0.068 | inactive: 0.052 | inactive: 0.039 | inactive: 0.023 | inactive: -0.012 | inactive: 0 | inactive: 0.008 | inactive: -0.049 | inactive: 0.021 | inactive: 0.01 | inactive: -0.001 | inactive: -0.01 |
| BNIP3 (UniProt Q12983) | inactive: -0.031 | inactive: 0.049 | inactive: -0.054 | active: -0.371 | inactive: -0.166 | inactive: 0.107 | inactive: -0.046 | inactive: -0.016 | inactive: 0.023 | inactive: 0.14 | inactive: 0.037 | inactive: -0.077 | inactive: 0.014 | inactive: -0.002 | inactive: -0.02 | inactive: -0.219 | inactive: 0.05 | inactive: 0.061 | inactive: -0.018 | inactive: -0.007 |
| BCL7C (UniProt Q8WUZ0) | inactive: 0.041 | inactive: 0 | inactive: -0.18 | inactive: -0.005 | inactive: -0.103 | inactive: 0.05 | inactive: 0.086 | inactive: -0.168 | inactive: -0.073 | inactive: 0.014 |  |  | inactive: 0.034 |  | inactive: -0.002 | inactive: -0.044 |  | inactive: 0.031 | inactive: -0.03 | inactive: -0.015 |
| BOD1L1 (UniProt Q8NFC6) | inactive: 0 | inactive: -0.023 | inactive: 0.016 | inactive: -0.023 | inactive: 0.017 | inactive: 0.072 | inactive: 0.009 | inactive: -0.006 | inactive: -0.017 | inactive: 0.04 | inactive: -0.018 | inactive: 0.005 | inactive: -0.004 | inactive: 0.018 | inactive: -0.02 | inactive: -0.031 | inactive: -0.004 | inactive: -0.001 | inactive: 0.007 | inactive: 0 |
| BICD2 isoform 2 (UniProt Q8TD16) | inactive: -0.012 | inactive: -0.031 | inactive: 0.025 | inactive: -0.015 | inactive: 0.036 | inactive: 0.011 | inactive: 0.038 | inactive: 0.006 | inactive: 0.007 | inactive: 0.001 | inactive: 0 | inactive: 0 | inactive: 0.016 | inactive: 0.002 | inactive: 0.025 | inactive: -0.012 | inactive: 0.004 | inactive: -0.024 | inactive: 0.004 | inactive: 0.007 |
| BCAP29 isoform 2 (UniProt Q9UHQ4) | inactive: 0.006 | inactive: -0.009 | inactive: 0 | inactive: -0.046 | inactive: -0.037 | inactive: -0.01 | inactive: 0.048 | inactive: -0.06 | inactive: 0.023 | inactive: 0.05 | inactive: 0.021 | inactive: -0.014 | inactive: 0.084 | inactive: 0.003 | inactive: -0.004 | inactive: 0.046 | inactive: -0.038 | inactive: -0.006 | inactive: 0.028 | inactive: 0.016 |
| BRIP1 (UniProt Q9BX63) | inactive: -0.068 |  | inactive: 0 | inactive: -0.025 | inactive: -0.109 | inactive: 0.005 | inactive: 0.133 | inactive: 0.046 |  | inactive: 0 | inactive: 0.169 | inactive: 0.073 | inactive: 0.13 | inactive: -0.212 | inactive: 0.15 | inactive: -0.151 | inactive: -0.105 | inactive: -0.057 | inactive: -0.013 | inactive: -0.038 |
| BAK1 (UniProt Q16611) | inactive: -0.013 |  | inactive: 0.088 | inactive: 0.115 | inactive: 0.053 | inactive: -0.028 | inactive: -0.135 | inactive: -0.252 |  | inactive: -0.019 |  |  | inactive: -0.051 |  | inactive: -0.027 | inactive: 0.045 |  | inactive: 0.038 | inactive: -0.106 | inactive: 0.013 |
| BAZ2A (UniProt Q9UIF9) | inactive: -0.123 |  | inactive: -0.034 | inactive: -0.133 |  | inactive: 0.26 | inactive: 0.109 | inactive: -0.014 |  | inactive: 0.16 | inactive: -0.138 | inactive: 0.094 |  | inactive: -0.028 |  | inactive: 0.05 | inactive: 0.077 | inactive: 0.01 | inactive: 0.113 | inactive: 0.102 |
| B4GALT1 (UniProt P15291) | inactive: 0.071 | inactive: -0.049 | inactive: 0.036 | inactive: -0.005 |  | inactive: -0.027 | inactive: -0.1 | inactive: -0.005 | inactive: 0.05 | inactive: 0.012 | inactive: 0.021 | inactive: -0.028 |  | inactive: -0.023 |  | inactive: 0.003 | inactive: 0.009 | inactive: 0.026 | inactive: 0.028 | inactive: -0.022 |
| BRF1 (UniProt Q92994) |  | inactive: -0.038 | inactive: -0.062 | inactive: -0.036 | inactive: 0.079 | inactive: -0.216 | inactive: -0.034 | inactive: 0.087 | inactive: -0.02 | inactive: 0.019 | inactive: 0.274 | inactive: -0.114 | inactive: -0.074 | inactive: -0.114 | inactive: 0.013 | inactive: -0.166 | inactive: -0.175 | inactive: 0.049 |  | inactive: 0.04 |

Not a retest: an excerpt of the list.

| Target | log2 fold change (lapatinib) | log2 fold change (pictilisib) | log2 fold change (crizotinib) | log2 fold change [1] | log2 fold change (duvelisib) | log2 fold change (gandotinib) | log2 fold change (tozasertib) | log2 fold change (doramapimod) | log2 fold change (bafetinib) | log2 fold change [2] | log2 fold change (nilotinib) | log2 fold change [3] | log2 fold change (dasatinib) | log2 fold change [4] | log2 fold change [5] | log2 fold change (quisinostat) | log2 fold change (tipifarnib) | log2 fold change [6] | log2 fold change [7] | log2 fold change [8] |
| --- | --- | --- | --- | --- | --- | --- | --- | --- | --- | --- | --- | --- | --- | --- | --- | --- | --- | --- | --- | --- |
| BCAP29 isoform 2 (UniProt Q9UHQ4) | inactive: 0.006 | inactive: -0.009 | inactive: 0 | inactive: -0.046 | inactive: -0.037 | inactive: -0.01 | inactive: 0.048 | inactive: -0.06 | inactive: 0.023 | inactive: 0.05 | inactive: 0.021 | inactive: -0.014 | inactive: 0.084 | inactive: 0.003 | inactive: -0.004 | inactive: 0.046 | inactive: -0.038 | inactive: -0.006 | inactive: 0.028 | inactive: 0.016 |
| BRIP1 (UniProt Q9BX63) | inactive: -0.068 |  | inactive: 0 | inactive: -0.025 | inactive: -0.109 | inactive: 0.005 | inactive: 0.133 | inactive: 0.046 |  | inactive: 0 | inactive: 0.169 | inactive: 0.073 | inactive: 0.13 | inactive: -0.212 | inactive: 0.15 | inactive: -0.151 | inactive: -0.105 | inactive: -0.057 | inactive: -0.013 | inactive: -0.038 |
